Results are given in words; binding and its absence hold for the method and conditions named. Some entries that bind do so weakly or less than the wild type.
Assays:
VEGF165 = VEGF165 (UniProt P15692); assay: Bio-layer interferometry (BLI), recombinant proteins
[1] = target: Neuropilin-1 (recombinant protein, BLI of FIG. 1) (human) (UniProt O14786); assay: as above

Chains of the proteins cited; added tags and fusions are not shown. Lines headed by an entry give the natural chain unless they say otherwise; changes in a name come on top. A line that says so, or that is headed by a name, gives the form on record, which may keep a tag or linker.
VEGF165 (P15692, form named): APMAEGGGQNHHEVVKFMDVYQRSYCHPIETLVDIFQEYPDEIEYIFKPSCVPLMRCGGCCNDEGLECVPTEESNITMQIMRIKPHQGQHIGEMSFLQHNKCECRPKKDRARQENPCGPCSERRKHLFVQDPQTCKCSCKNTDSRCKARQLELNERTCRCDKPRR
UniProt O14786: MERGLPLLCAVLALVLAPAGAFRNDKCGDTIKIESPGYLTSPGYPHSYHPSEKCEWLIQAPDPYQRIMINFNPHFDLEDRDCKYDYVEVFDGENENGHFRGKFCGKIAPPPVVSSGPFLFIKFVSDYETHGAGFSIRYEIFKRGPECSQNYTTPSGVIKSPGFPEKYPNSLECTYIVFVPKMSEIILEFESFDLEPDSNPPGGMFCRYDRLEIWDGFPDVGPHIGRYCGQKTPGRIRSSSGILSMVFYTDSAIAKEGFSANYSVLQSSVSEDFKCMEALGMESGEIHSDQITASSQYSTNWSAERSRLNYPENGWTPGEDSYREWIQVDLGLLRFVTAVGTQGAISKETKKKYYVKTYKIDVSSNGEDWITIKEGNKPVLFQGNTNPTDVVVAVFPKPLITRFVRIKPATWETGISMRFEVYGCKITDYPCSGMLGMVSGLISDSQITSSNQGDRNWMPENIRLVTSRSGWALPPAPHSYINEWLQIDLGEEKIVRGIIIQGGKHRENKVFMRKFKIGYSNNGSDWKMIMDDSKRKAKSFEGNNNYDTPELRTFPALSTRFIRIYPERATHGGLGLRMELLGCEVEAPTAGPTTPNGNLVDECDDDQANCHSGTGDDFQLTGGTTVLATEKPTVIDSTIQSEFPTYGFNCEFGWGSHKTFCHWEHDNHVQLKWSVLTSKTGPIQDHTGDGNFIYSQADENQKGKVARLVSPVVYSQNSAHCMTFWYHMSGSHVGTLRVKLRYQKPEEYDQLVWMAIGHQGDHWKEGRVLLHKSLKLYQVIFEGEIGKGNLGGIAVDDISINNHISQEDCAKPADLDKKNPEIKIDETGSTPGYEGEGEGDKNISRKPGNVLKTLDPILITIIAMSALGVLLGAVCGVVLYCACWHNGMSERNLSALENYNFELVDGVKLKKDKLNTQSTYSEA
UniProt P41159: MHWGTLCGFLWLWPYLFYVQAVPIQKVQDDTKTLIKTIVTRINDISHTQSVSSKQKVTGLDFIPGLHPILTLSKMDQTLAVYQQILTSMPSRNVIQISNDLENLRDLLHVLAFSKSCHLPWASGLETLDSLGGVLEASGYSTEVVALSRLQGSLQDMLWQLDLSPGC

Leptin (recombinant protein) (from UniProt P41159 22-167) (ligand)
binding (VEGF165): binds | binding [1]: binds

— patent US20180230189A1
